Laboratory results: PubChem BioAssay AID1259327 (Drosophila RNAi Screening Center, 2017)

Assay: 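Knock-downs altering cellular ATP with no metal added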
Cell system: Drosophila S2R+ cells
Reagent: long dsRNA against Drosophila genes
Duration: 5 days (water added on day 4, read one day later)
Treatment: water added as vehicle, no metal, one day before read-out
Detection: 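Luciferase ATP signal per well, normalised to plate mean, duplicate average converted to z-score across plates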
Scale: ATP z-score: higher = more total ATP than typical wells; ATP luminescence: higher = more total ATP
Active means: 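Called active when the ATP z-score exceeds 1.5 or falls below -1.5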
Meaning of the calls: active = hit: ATP up or down; inactive = no clear ATP change
The whole screen tested about 3,100 reagents; this is a random part of them. Over the whole deposit, 378 (12%) got an active call. 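Hits include both directions; z-score sign shows ATP rise or fall; raw luminescence values are not plate-normalised.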 The numbers tell different reagents against one gene apart. Names joined by + are all predicted targets of the reagent. Not given: the amount of reagent.

| gene knocked down | dsRNA no. | ATP z-score, duplicate mean | ATP luminescence, replicate 1 (RLU) | ATP luminescence, replicate 2 (RLU) | activity call |
| --- | --- | --- | --- | --- | --- |
| 5-HT1B (5-hydroxytryptamine (serotonin) receptor 1B) | 1 | -0.517 | 5.74e5 | 5.72e5 | inactive |
| 5-HT1B (5-hydroxytryptamine (serotonin) receptor 1B) | 2 | 0.562 | 9.45e5 | 8.95e5 | inactive |
| pes (peste) | 1 | 0.362 | 7.86e5 | 7.43e5 | inactive |
| pes (peste) | 2 | -0.882 | 7.25e5 | 7.57e5 | inactive |
| Atet (ABC transporter expressed in trachea) | 1 | 0.00936 | 7.46e5 | 7.09e5 | inactive |
| Atet (ABC transporter expressed in trachea) | 2 | 1.07 | 6.75e5 | 6.77e5 | inactive |
| CG31259 | 1 | -0.732 | 2.65e5 | 6.85e5 | inactive |
| CG31259 | 2 | -0.524 | 4.23e5 | 4.63e5 | inactive |
| sit (stuck in traffic) | 1 | 1.19 | 3.06e5 | 1.01e6 | inactive |
| sit (stuck in traffic) | 2 | 1.92 | 1.12e6 | 1.06e6 | active |
| CG13978 | 1 | -1.59 | 5.34e5 | 6.63e5 | active |

The list goes on (2 carried over from the part before).
| gene knocked down | dsRNA no. | ATP z-score, duplicate mean | ATP luminescence, replicate 1 (RLU) | ATP luminescence, replicate 2 (RLU) | activity call |
| --- | --- | --- | --- | --- | --- |
| sit (stuck in traffic) | 2 | 1.92 | 1.12e6 | 1.06e6 | active |
| CG13978 | 1 | -1.59 | 5.34e5 | 6.63e5 | active |
| Ir21a + asRNA:CR43609 | 1 | 0.352 | 8.03e5 | 6.83e5 | inactive |
| CG1208 | 1 | 0.0569 | 7.52e5 | 6.73e5 | inactive |
| CG1208 | 2 | -1.42 | 3.83e5 | 3.36e5 | inactive |
| PGRP-LE (Peptidoglycan recognition protein LE) | 1 | -0.463 | 6.78e5 | 6.39e5 | inactive |
| NKCC (sodium potassium chloride cotransporter) | 1 | -0.457 | 6.74e5 | 6.91e5 | inactive |
| NKCC (sodium potassium chloride cotransporter) | 2 | -0.159 | 8.93e5 | 8.58e5 | inactive |
| CG31100 | 1 | -0.161 | 2.91e5 | 7.46e5 | inactive |
| CG31100 | 2 | -0.713 | 2.75e5 | 6.63e5 | inactive |
| CG1909 | 1 | -0.284 | 7.10e5 | 6.44e5 | inactive |
| CG1909 | 2 | -2.01 | 3.50e5 | 3.06e5 | active |
| mri (mrityu) | 1 | -0.617 | 9.03e5 | 4.20e5 | inactive |
| mri (mrityu) | 2 | 0.0631 | 8.53e5 | 8.38e5 | inactive |
| Atpalpha (Na pump alpha subunit) | 1 | 0.051 | 7.26e5 | 6.97e5 | inactive |
| Atpalpha (Na pump alpha subunit) | 2 | -1.61 | 4.38e5 | 4.48e5 | active |
| Lgr1 (Leucine-rich repeat-containing G protein-coupled receptor 1) | 1 | 0.231 | 3.25e5 | 7.48e5 | inactive |
| Lgr1 (Leucine-rich repeat-containing G protein-coupled receptor 1) | 2 | -0.574 | 4.17e5 | 4.36e5 | inactive |
| Gfrl (Glial cell line-derived neurotrophic family receptor-like) | 1 | -0.0509 | 3.23e5 | 6.88e5 | inactive |
| Gfrl (Glial cell line-derived neurotrophic family receptor-like) | 2 | 0.268 | 9.03e5 | 8.64e5 | inactive |
